According to US20170143647A1, “INTESTINAL FLORA IMPROVING COMPOSITION CONTAINING ASTAXANTHIN AND ITS USE” (THE DOSHISHA, priority 2013, published 2017):

Assays:
[1] = Content of DNA extracted from feces (NanoDrop method); type: in vivo, ICR mice; details: mean value of Day 0, Day 14 and Day 28, mean±SD
[2] = Properties (color) of feces; type: in vivo, ICR mice

## CC1=C(/C=C/C(C)=C/C=C/C(C)=C/C=C/C=C(C)/C=C/C=C(C)/C=C/C2=C(C)C(=O)C(O)CC2(C)C)C(C)(C)CC(O)C1=O (stereo not drawn) [astaxanthin, 3,3′-dihydroxy-β,β-carotene-4,4′-dione]
[1]; group CA: ordinary diet + 0.02% astaxanthin
  DNA content of feces: 102.7 ± 28.5 ng/µL
[1]; group HA: high-fat diet + 0.02% astaxanthin
  DNA content of feces: 66.9 ± 28.4 ng/µL
[2]; group CA: ordinary diet + astaxanthin
  color of the feces: red brown
[2]; group HA: high-fat diet + astaxanthin
  color of the feces: red to orange
